Laboratory results from US9914914B2, “Polymerase capable of producing non-DNA nucleotide polymers” (Medical Research Council, priority 2012, dated 2018).

Assay: Aggregate fidelity of XNA synthesis and reverse transcription
Format: biochemical
Details: for Misincorporation error: DNA→XNA→DNA; for Misincorporation error / Total Error: synthesis/RT: HNA Pol6G12/RT521, CeNA PolC7/RT521K, ANA and FANA PolD4K/RT521K, TNA RT521/RT521, LNA PolC7/RT521K; for aggregate fidelity (probability of errors per position): full DNA→XNA→DNA replication cycle; for Total Error: includes Taq amplification error

In the case of “2′-O,4′-C-methylene-β-D-ribonucleic acids [LNA]”, the Misincorporation error is reported as 52.8 ×10^−3, the “aggregate fidelity (probability of errors per position)” value is reported as 5.3×10^−2 and the “Total Error” value is reported as 62.0 ×10^−3.

With cyclohexenyl nucleic acids [CeNA] the Misincorporation error was 4.31 ×10^−3, the “aggregate fidelity (probability of errors per position)” value was 4.3×10^−3 and the “Total Error” value was 9.64 ×10^−3.

With a-L-threofuranosyl nucleic acids [TNA] the Misincorporation error was 48.5 ×10^−3 and the “Total Error” value was 68.5 ×10^−3.

B1: D4K: Tgo polymerase with V93Q, D141A, E143A, L403P, A485L, P657T, E658Q, K659H, Y663H, E664K, D669A, K671N, T676I; SEQ ID NO:5 (protein)
chain: MILDTDYITEDGKPVIRIFKKENGEFKIDYDRNFEPYIYALLKDDSAIEDVKKITAERHGTTVRVVRAEKVKKKFLGRPIEVWKLYFTHPQDQPAIRDKIKEHPAVVDIYEYDIPFAKRYLIDKGLIPMEGDEELKMLAFAIATLYHEGEEFAEGPILMISYADEEGARVITWKNIDLPYVDVVSTEKEMIKRFLKVVKEKDPDVLITYNGDNFDFAYLKKRSEKLGVKFILGREGSEPKIQRMGDRFAVEVKGRIHFDLYPVIRRTINLPTYTLEAVYEAIFGQPKEKVYAEEIAQAWETGEGLERVARYSMEDAKVTYELGKEFFPMEAQLSRLVGQSLWDVSRSSTGNLVEWFLLRKAYERNELAPNKPDERELARRRESYAGGYVKEPERGLWENIVYPDFRSLYPSIIITHNVSPDTLNREGCEEYDVAPQVGHKFCKDFPGFIPSLLGDLLEERQKVKKKMKATIDPIEKKLLDYRQRLIKILANSFYGYYGYAKARWYCKECAESVTAWGRQYIETTIREIEEKFGFKVLYADTDGFFATIPGADAETVKKKAKEFLDYINAKLPGLLELEYEGFYKRGFFVTKKKYAVIDEEDKITTRGLEIVRRDWSEIAKETQARVLEAILKHGDVEEAVRIVKEVTEKLSKYEVPTQHLVIHKQITRALNDYKAIGPHVAVAKRLAARGIKIRPGTVISYIVLKGSGRIGDRAIPFDEFDPAKHKYDAEYYIENQVLPAVERILRAFGYRKEDLRYQKTRQVGLGAWLKPKT
modifications: Polymerase D4YK derived from T. gorgonarius
With B1 the “apparent fidelity with ANA” value (ANA synthesis, reverse transcription, PCR, sequencing) was 7.66×10^−3 and the “apparent fidelity with FANA” value (FANA synthesis, reverse transcription, PCR, sequencing) was 9.45×10^−3.
